These are yes or no findings as the source states them, for the method shown. Binding can be weak; no strength is given. For some assays here: Tags and fused reporters may be left off the sequences shown.
Tests used:
[1] = molecular target: ScRea1-MIDAS ∆loop with the PY-NLS of Hrp1 (two-hybrid construct) (S. cerevisiae); assay: two-hybrid; Rea1-MIDAS constructs fused to GAL4-BD (bait), Rsa4 fused to GAL4-AD (prey); strain PJ69-4A; growth on SDC-Leu-Trp-His (HIS3 reporter), 3 days at 30 °C
[2] = molecular target: ScRea1-MIDAS ∆loop with the PY-NLS of Syo1 (two-hybrid construct) (S. cerevisiae); assay: as above
[3] = molecular target: ScRea1-MIDAS ∆loop with the PY-NLS of L4 (two-hybrid construct) (S. cerevisiae); assay: as above
[4] = molecular target: ScRea1-MIDAS ∆loop (GAL4-BD fusion) (S. cerevisiae); assay: as above
[5] = molecular target: CtRea1-MIDAS∆loop (Chaetomium thermophilum); assay: crystal structure; complexes reconstituted from purified components (with 5 mM MgCl2), sitting-drop vapor diffusion at 18 °C; Mg2+ coordinated by MIDAS and UBL; both purified

B1: full-length Rsa4 from S. cerevisiae (GAL4-AD fusion) (protein, UniProt P25382 1-515)
chain: MSTLIPPPSKKQKKEAQLPREVAIIPKDLPNVSIKFQALDTGDNVGGALRVPGAISEKQLEELLNQLNGTSDDPVPYTFSCTIQGKKASDPVKTIDITDNLYSSLIKPGYNSTEDQITLLYTPRAVFKVKPVTRSSSAIAGHGSTILCSAFAPHTSSRMVTGAGDNTARIWDCDTQTPMHTLKGHYNWVLCVSWSPDGEVIATGSMDNTIRLWDPKSGQCLGDALRGHSKWITSLSWEPIHLVKPGSKPRLASSSKDGTIKIWDTVSRVCQYTMSGHTNSVSCVKWGGQGLLYSGSHDRTVRVWDINSQGRCINILKSHAHWVNHLSLSTDYALRIGAFDHTGKKPSTPEEAQKKALENYEKICKKNGNSEEMMVTASDDYTMFLWNPLKSTKPIARMTGHQKLVNHVAFSPDGRYIVSASFDNSIKLWDGRDGKFISTFRGHVASVYQVAWSSDCRLLVSCSKDTTLKVWDVRTRKLSVDLPGHKDEVYTVDWSVDGKRVCSGGKDKMVRLWTH
With B1 the binding [1] was “binds”, the binding [2] was “binds” and the binding [3] was “binds”. For the same binder, the binding [4] was “binds”.

B2: CtYtm1-Ubl_8–98 (domain or fragment, UniProt G0SFB5 8-98)
chain: APAPVAQVKVIFTTTEPDLELPESKRQLLVPADIRRYGLSRILNSESMLDTGSIPFDFLINGSFLRSSLEDYLTSNGLSLETTLTLQYVRS
B2 was tested, and the binding [5] was “binds”.
